Literature values as cited in patent publication US7186842B2, “Polymorph of (1-benzyl-4-[(5,6-dimethoxy-1-indanone)-2-y1] methyl piperidine hydrochloride (Donepezil hydrochloride) and a process for producing thereof” (USV, Ltd., priority 2003, dated 2007).

COc1cc2c(cc1OC)C(=O)C(CC1CCN(Cc3ccccc3)CC1)C2.Cl (stereo not shown) [1-benzyl-4-[(5,6-dimethoxy-1-indanone)-2-yl] methyl piperidine hydrochloride]
chemical stability on storage: chemically unstable on storage
